Measurements as given in patent US20260000657A1, “ANTI-ANGIOGENIC THERAPY AS TREATMENT FOR BENIGN UTERINE DISORDERS” (STICHTING AMSTERDAM UMC, priority 2022, published 2026).
For at least one compound, name, drawing or mass did not settle the structure.

What was measured:
[1] = system: tamoxifen-induced adenomyosis in CD-1 mice; test: Oral axitinib treatment in tamoxifen-induced adenomyosis mouse model; format: in vivo; settings: for Adenomyosis No (number of mice): N = 34, listed as axitinib
Description: After validation of the model, this model was used to test treatment with anti-vascular endothelial growth factor receptor 2 (VEGFR-2) tyrosine kinase inhibitor axitinib (A-1107; LC Laboratories). To induce adenomyosis, 108 mice received neonatal tamoxifen treatment and were randomly allocated to receive treatment or placebo. On day 42, anti-angiogenesis treatment commenced by oral axitinib treatment or placebo. Axitinib was dissolved in 0.5% sodium carboxymethylcellulose (CMC) at a dose of 25 mg/kg body weight (dose I) or at a dose of 3 mg/kg (dose II). All animals received treatment by daily oral gavage at 5 μl/g bodyweight with axitinib (dose I/II) or placebo (CMC) for a time period of three weeks. During this period, all animals had daily animal welfare observations, and were weighed at a minimum of three times per week. The experimental groups are depicted in FIG. 1.
The uteri were cut in half, one horn (right/left horn randomized) was fixed in 4% formaldehyde at room temperature for 48 hours.
Uterine tissue was embedded in paraffin and sliced into transverse oriented sections of 5 μm, with three sections of one uterine horn on one microscope slide. […] Paraffin-embedded sections were dewaxed in xylene, rehydrated in 100%, 96%, and 70% ethanol, and washed in PBS (pH 7.4). […] After washing in PBS, aspecific binding was blocked by 3% BSA/PBS for one hour. After adding primary antibodies diluted in 0.5% BSA/PBS, sections were incubated overnight at 4° C. […] After washing with PBS, horseradish peroxidase (HRP)—streptavidin (strep) was added (cat. no. ab6734; 1:200; Dako Cytomation) diluted in 0.5% BSA/PBS, for thirty minutes. The sections were then washed in PBS, afterwards 3,3′-Diaminobenzidine (DAB) was added (60 μl DAB; 1 μl 30% H2O2; 1 mL PBS), for eight minutes.

[2] = system: uterus of mice with tamoxifen-induced adenomyosis; settings: low dose (1% and/or 0.1%), intra-uterine slow-release gel
Description: Sunitinib is another angiogenesis inhibitor and a highly-fluorescent molecule, therefore it will be used as a model drug to microscopically assess uptake and distribution in uterine tissue after termination.
Intra-uterine delivery of a gel containing slow-release Sunitinib in low dose will also be tested as an alternative treatment for oral Axinitib in mice with tamoxifen-induced adenomyosis.

[3] = system: tamoxifen-induced adenomyosis murine model; settings: treatment started at day 6; cited from earlier work

In the case of `CNC(=O)c1ccccc1Sc1ccc2c(/C=C/c3ccccn3)n[nH]c2c1` [Axitinib, axitinib], the “Incidence of Grade 2/3 adenomyosis vs placebo” value ([1]; axitinib 3 mg/kg or 25 mg/kg, p=0.048) is reported as “lower incidence”, the “Number of ectopic glands, or spread of adenomyosis between the groups” value ([1]; axitinib dose I, dose II, placebo) is reported as “no significant difference” and the “Prevalence of grade 0 and 1 adenomyosis vs placebo group” value ([1]; axitinib dose I/II) is reported as “more prevalent”. The “Adenomyosis No (number of mice)” value ([1]; dose I 25 mg/kg daily oral gavage three weeks) was “four” and the “Adenomyosis No (number of mice)” value ([1]; dose II 3 mg/kg daily oral gavage three weeks) was “five”.
In the case of `CCN(CC)CCNC(=O)c1c(C)[nH]c(/C=C2\C(=O)Nc3ccc(F)cc32)c1C` [Sunitinib], the “Inhibition of angiogenesis when delivered locally” value [2] is reported as “potent in inhibiting angiogenesis”.
For `Cc1ccc(-c2cc(C(F)(F)F)nn2-c2ccc(S(N)(=O)=O)cc2)cc1` [celecoxib], the “Analgesic effect, thermal response latency” value [3] is given as “prolonging the thermal response latency” and the “Depth of endometrial infiltration in the myometrium” value [3] is given as “reduced the depth of endometrial infiltration”.
